{"source": "PubChem BioAssay AID504808 (Drosophila RNAi Screening Center, 2011)", "test": "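Chromatin factors that keep E2F targets switched off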 (primary screen)", "cell system": "Drosophila S2 cells", "reagents": "long dsRNA against Drosophila genes", "measured": "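Firefly luciferase driven by E2F sites, normalised to Renilla luciferase on the same minimal promoter, measured by plate reader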", "scale": "E2F firefly: higher = more E2F reporter activity; Renilla normaliser: higher = more normaliser reporter signal", "hit rule": "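Called active if the normalised E2F reporter went up by over 50%; the cutoff is arbitrary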", "note": "The screen tested about 21,000 reagents; shown is an unselected part of those that have a named target and a result. In the full data, 18 (0.084%) are marked active. 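Raw counts without plate normalisation, one of two replicates; the ratio scores behind the calls were not deposited.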 The numbers tell different reagents against one gene apart. Not given: the amount of reagent, the time to read-out."}
{"target": "CG31517", "dsRNA no.": 1, "E2F firefly, rep 1": 80866, "Renilla normaliser, rep 1": 2448, "Outcome": "inactive"}
{"target": "CG33460", "dsRNA no.": 1, "E2F firefly, rep 1": 1.26e5, "Renilla normaliser, rep 1": 5174, "Outcome": "inactive"}
{"target": "CG3222", "dsRNA no.": 1, "E2F firefly, rep 1": 88352, "Renilla normaliser, rep 1": 4097, "Outcome": "inactive"}
{"target": "CG14230", "dsRNA no.": 1, "E2F firefly, rep 1": 1.59e5, "Renilla normaliser, rep 1": 5582, "Outcome": "inactive"}
{"target": "CG12713", "dsRNA no.": 1, "E2F firefly, rep 1": 67257, "Renilla normaliser, rep 1": 3785, "Outcome": "inactive"}
{"target": "Pax (Paxillin)", "dsRNA no.": 1, "E2F firefly, rep 1": 1.41e5, "Renilla normaliser, rep 1": 7000, "Outcome": "inactive"}
{"target": "Pax (Paxillin)", "dsRNA no.": 2, "E2F firefly, rep 1": 90730, "Renilla normaliser, rep 1": 3491, "Outcome": "inactive"}
{"target": "Pax (Paxillin)", "dsRNA no.": 3, "E2F firefly, rep 1": 89055, "Renilla normaliser, rep 1": 3765, "Outcome": "inactive"}
{"target": "Gr93c (Gustatory receptor 93c)", "dsRNA no.": 1, "E2F firefly, rep 1": 1.38e5, "Renilla normaliser, rep 1": 6051, "Outcome": "inactive"}
{"target": "CG4950", "dsRNA no.": 1, "E2F firefly, rep 1": 1.53e5, "Renilla normaliser, rep 1": 7531, "Outcome": "inactive"}
{"target": "FLASH (FLICE-associated huge protein)", "dsRNA no.": 1, "E2F firefly, rep 1": 50792, "Renilla normaliser, rep 1": 3351, "Outcome": "inactive"}
{"target": "CG9257", "dsRNA no.": 1, "E2F firefly, rep 1": 1.01e5, "Renilla normaliser, rep 1": 4297, "Outcome": "inactive"}
{"target": "Cyp4s3 (Cytochrome P450 4s3)", "dsRNA no.": 1, "E2F firefly, rep 1": 1.50e5, "Renilla normaliser, rep 1": 6202, "Outcome": "inactive"}
{"target": "babo (baboon)", "dsRNA no.": 1, "E2F firefly, rep 1": 1.47e5, "Renilla normaliser, rep 1": 5142, "Outcome": "inactive"}
{"target": "ms(3)76Ba (male sterile (3) 76Ba)", "dsRNA no.": 1, "E2F firefly, rep 1": 1.51e5, "Renilla normaliser, rep 1": 6468, "Outcome": "inactive"}
{"target": "CG31915", "dsRNA no.": 1, "E2F firefly, rep 1": 1.47e5, "Renilla normaliser, rep 1": 5344, "Outcome": "inactive"}
{"target": "CG15729 (retired record)", "dsRNA no.": 1, "E2F firefly, rep 1": 1.28e5, "Renilla normaliser, rep 1": 6506, "Outcome": "inactive"}
{"target": "Tim17a1", "dsRNA no.": 1, "E2F firefly, rep 1": 1.50e5, "Renilla normaliser, rep 1": 6911, "Outcome": "inactive"}
{"target": "CG31797", "dsRNA no.": 1, "E2F firefly, rep 1": 1.10e5, "Renilla normaliser, rep 1": 4194, "Outcome": "inactive"}
{"target": "CG31797", "dsRNA no.": 2, "E2F firefly, rep 1": 1.02e5, "Renilla normaliser, rep 1": 4151, "Outcome": "inactive"}

Ordered by “E2F firefly, rep 1” (highest first): some entries from above
{"target": "CG4950", "dsRNA no.": 1, "E2F firefly, rep 1": 1.53e5, "Renilla normaliser, rep 1": 7531, "Outcome": "inactive"}
{"target": "FLASH (FLICE-associated huge protein)", "dsRNA no.": 1, "E2F firefly, rep 1": 50792, "Renilla normaliser, rep 1": 3351, "Outcome": "inactive"}
